The results in this text go back to PubChem BioAssay AID493014 (National Center for Advancing Translational Sciences (NCATS), 2011).

The structures appear in SMILES notation. Several values for one entry are separate records, joined by “and”; a condition that tells them apart may be missing. Equal entries are not always repeated. The list shows a part of the results. These are further read-outs of the screen, such as a control signal, another cell line or another target. No call is given for them. Most of these compounds were active or inconclusive in the main read-out, so they are no random draw. Words in brackets tell the shape of the fitted curve; partial curves, single points and poor fits give uncertain potencies.

A short description of this assay: qHTS Assay to Find Inhibitors of Chronic Active B-Cell Receptor Signaling. The settings on record: ABC-DLBCL IkBa-CBG/CBR reporter, luminescence ratio (green luciferase fused to IkBa over red control in TMD8 lymphoma cells), 4 h. The procedure, abridged: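 Compounds up to 46 uM were incubated four hours with TMD8 cells whose green CBG68 luciferase is fused to IkappaBalpha; red CBR luminescence normalised the signal, and concentration-effect curves were fitted to fusion, red and ratio data.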
Background: In qHTS, concentration-response curves come from the screen itself.

Where [1] appears, read: measured here: CBR red luminescence, cell number.
[2] abbreviates: measured here: IkBa-CBG green luminescence.

A word on the AC50: it is the concentration at which the activity in the assay is half-maximal. Take `Cc1cn(-c2cccnc2)c(C)c1CNC[C@H]1O[C@@H](n2cnc3c(N)ncnc32)[C@H](O)[C@@H]1O`: the AC50 is 29.1 µM [rising, single point] under setting [1] and 20.6 µM [falling, partial curve] under setting [2]. As for `O=C1C(Cl)=C(N2CCOCC2)C(=O)N1c1cccc(Cl)c1`, under setting [1], the AC50 was 20 µM [falling, single point].

As for `CCOc1ccc(-c2csc(N)c2C(=O)OC)cc1`, the AC50 under setting [1] was 20.6 µM [rising, partial curve, poor fit].

`CC(=O)c1sc(NC(=O)c2cccc(N3C(=O)CCC3=O)c2)nc1-c1ccccc1`: the AC50 under setting [1] was 0.651 µM [falling, partial curve, poor fit].

Turning to `CCC(C)[C@H](NC(=O)NCc1ccccc1Cl)C(=O)O` (some centres not stated), the AC50 under setting [1] is 29.1 µM [falling, single point].

Regarding `COc1ccc2nc(NC(=O)CSc3nc4ccccc4o3)sc2c1`, under setting [1], the AC50 is 20 µM [rising, single point]. As to `CC(=O)Nc1ccc(S(=O)(=O)NCC(=O)OC(C)c2ccccc2Cl)cc1` (configuration not stated), the AC50 is, setting by setting: under setting [1], 18.4 µM [rising, single point]; under setting [2], 29.1 µM [falling, partial curve, poor fit]. Regarding `CCc1ccc(N(C(=O)CCC(=O)Nc2cc(C)on2)C(C(=O)NC2CCCC2)c2ccco2)cc1` (configuration not stated), the AC50 under setting [1] was 20.6 µM [rising, single point]. On the same count and under the same terms, then `O=C(CSc1nc(=O)n(CCCN2CCOCC2)c2c1CCCC2)Nc1ccc(F)cc1`, with 4.11 µM [falling, single point]; and `CCOC(=O)[C@H]1[C@H]2COc3cc(OC)ccc3[C@@H]2N2C(=O)c3ccc(F)cc3NC(=O)[C@@]12C`, with 20.6 µM [falling, single point]; and `COc1ccc(-n2c(SCC(=O)Nc3cc(C)on3)nc3ccccc3c2=O)cc1Cl`, with 35.5 µM [rising, single point]. On the same count and under the same terms, as for `Cc1ccc(CNC(=O)CSc2c3c(nc4ccc(Cl)cc24)CCCC3)o1`, the figure is 11.6 µM [falling, partial curve]. The same measure, in the same setting: then `CCOc1ccccc1NC(=O)NNC(=O)c1ccc2ccccc2c1`, with 25.1 µM [falling, single point]. Turning to `C=CCCC(=O)Nc1nc(C)c(-c2csc(Nc3ccc(Cl)cc3)n2)s1`, the half-maximal activity concentration (AC50) runs as follows: under setting [1], 0.316 µM [rising, full curve, poor fit]; under setting [2], 14.1 µM [rising, partial curve, poor fit]. Turning to `CS(=O)(=O)N1CCN(C(=O)c2csc3ccccc23)CC1`, the AC50 under setting [1] was 16.4 µM [rising, single point]. On the same count and under the same terms, then `N#Cc1c(N)nc2c(c1N)CC(C(F)(F)F)O2` (configuration not stated), with 35.5 µM [falling, single point]; and `Cc1cccc(Nc2nnc(SCC(=O)Nc3ccccc3[N+](=O)[O-])s2)c1`, with 20.6 µM [falling, single point]. The same measure, in the same setting: then `O=C(c1ccc(F)cc1)C1CCN(C(=O)N2CCOCC2)CC1`, with 7.94 µM [rising, partial curve, poor fit]; and `O=C(Nc1ccccc1)OC1CC2CC1C1CCCC21` (configuration not stated), with 10 µM [falling, single point]; and `CC1S/C(=N/N=C/c2cccs2)NC1=O` (configuration not stated), with 2.31 µM [rising, partial curve, poor fit].

On to `Cc1ccc(CN2C(=O)CCC2C(=O)NCc2ccc(F)cc2)cc1` (configuration not stated), for which the AC50 under setting [1] was 4.47 µM [rising, full curve, poor fit]. In the case of `Cc1cc(-c2nnc3n2N=C(c2ccc(-c4ccccc4)cc2)CS3)n[nH]1`, the AC50 under setting [1] was 35.5 µM [falling, single point]. On the same count and under the same terms, as for `CNC(=O)CN(c1cc(C)ccc1OC)S(=O)(=O)c1ccc(C)cc1`, the figure is 6.51 µM [falling, single point].

Regarding `CCn1cc(CN2CCC(C(=O)Nc3cccc(-c4cccc(Cl)c4)c3)CC2)cn1`, the concentration at half-maximal activity (AC50) under setting [1] was 15.8 µM [falling, partial curve, poor fit].

As to `O=C(CCC1COc2ccccc2O1)NCc1ccccc1` (configuration not stated), the AC50 under setting [1] is 2.06 µM [rising, single point]. Still for that read-out and setting: as for `CCCC1(C(=O)OCC)NC(c2ccc(N(C)C)cc2)C2C(=O)N(c3ccc(OCC)cc3)C(=O)C21` (configuration not stated), the figure is 12.6 µM [rising, single point]; as for `COc1ccc2nc(/C=N/NC(=O)[C@H](CCSC)NC(=O)OC(C)(C)C)ccc2c1`, 1.84 µM [rising, full curve, poor fit]; as for `CCNC(=O)COC(=O)c1cc(S(=O)(=O)N2CCCCC2)ccc1C`, 2.51 µM [rising, partial curve, poor fit]. The same measure, in the same setting: as for `O=C(CCc1ccccc1)N1CCN(c2ccc(F)cc2)CC1`, the figure is 7.94 µM [rising, partial curve, poor fit]. The same measure, in the same setting: as for `C/C=C/C=C/C(=O)Nc1cccc(C2=NOC3(C2)C[C@H](C(N)=O)N(C(=O)CC(c2ccccc2)c2ccccc2)C3)c1` (some centres not stated), the figure is 3.16 µM [falling, partial curve, poor fit]. As to `Cc1ccc(C)c(OCC(=O)Nc2cccc(C(=O)O)c2)c1C`, the AC50 under setting [1] was 0.92 µM [rising, full curve].

`COC(=O)C1=C(C)N(Cc2ccccc2)C(=NCC(C)C)N[C@H]1c1cccc(F)c1`: under setting [1], the half-maximal activity concentration (AC50) was 20 µM [falling, partial curve, poor fit] and 16.4 µM [falling, partial curve]. Turning to `COc1ccc(Nc2nc(N)nc(C(F)(F)F)n2)c(OC)c1`, under setting [1], the AC50 is 2.06 µM [rising, full curve, poor fit]. Still for that read-out and setting: then `O=C(NCC1CC1(Cl)Cl)Nc1ccc(Cl)c(Cl)c1` (configuration not stated), with 35.5 µM [falling, single point]. On to `N/C(Cc1ccccc1)=N\OC(=O)c1cccc2ccccc12`, for which the AC50 under setting [1] was 10.3 µM [rising, partial curve]. `Cc1ccc(NC(=S)N=Nc2c(O)[nH]c3ccccc23)cc1`: the AC50 under setting [1] is 3.55 µM [rising, single point] and the AC50 under setting [2] was 5.62 µM [falling, single point].

As to `Cc1nc(-c2ccccn2)sc1C(=O)O`, the AC50 under setting [1] was 14.1 µM [falling, single point] and the AC50 under setting [2] was 0.1 µM [rising, full curve, poor fit]. With `CCN(CC)C(=O)Oc1ccc(OC(=O)N(CC)CC)cc1`, under setting [1], the AC50 is 12.6 µM [rising, single point]. On the same count and under the same terms, as for `COC(=O)c1ccc(N=NN2CCOCC2)cc1`, the figure is 3.26 µM [rising, full curve]; as for `Cc1cccc(N(CC(=O)NCc2ccc3c(c2)OCO3)C(=O)CCC(=O)Nc2ccccn2)c1C`, 10 µM [falling, partial curve]; as for `O=C(Cc1cccs1)NCCn1ccc2ccccc21`, 0.164 µM [rising, full curve, poor fit]. On to `Cc1cc(Cl)ccc1OC(C)C(=O)N1CCCN(C(=O)C(C)Oc2ccc(Cl)cc2C)CC1` (configuration not stated), for which the AC50 under setting [1] is 25.1 µM [falling, single point]. Regarding `C/C(=N\NC(=O)c1ccc(Cl)cc1)c1ccc2[nH]ccc2c1`, the AC50 under setting [1] is 0.316 µM [falling, full curve].

Turning to `S=C(NCc1ccco1)N/N=C/c1ccc(Cl)cc1`, the half-maximal activity concentration (AC50) under setting [1] was 7.31 µM [falling, partial curve, poor fit].

For `Cc1ccccc1NC(=O)C1COc2ccccc2O1` (configuration not stated), under setting [1], the AC50 was 4.47 µM [rising, partial curve, poor fit].

`COc1ccccc1C(CNC(=O)c1ccc(-c2ccccc2Cl)o1)N1CCCC1` (configuration not stated): the AC50 under setting [1] is 18.4 µM [falling, partial curve].

On to `Cc1ccc(S(=O)(=O)N2CCCC2CNC(=O)C(=O)Nc2ccc(F)cc2F)cc1` (configuration not stated), for which, under setting [1], the AC50 was 11.6 µM [falling, partial curve, poor fit]. For the compound `O=C(NCc1cccs1)c1cc(-c2cccs2)on1`, the AC50 under setting [1] is 0.891 µM [falling, partial curve, poor fit]. The same measure, in the same setting: then `Nc1c(C(=O)Nc2ccc(F)cc2)sc2nc(-c3ccco3)ccc12`, with 2.82 µM [falling, full curve]. The same measure, in the same setting: as for `COc1cc(/C=N/NC(=O)C(Cc2c[nH]c3ccccc23)NC(=O)OCC(C)C)cc([N+](=O)[O-])c1OCc1ccccc1` (configuration not stated), the figure is 3.55 µM [falling, single point]. As for `CCOC(=O)N1CCN(C(=O)COc2cccc3c2CCN(Cc2ccccc2C)C3=O)CC1`, the AC50 under setting [1] is 8.2 µM [falling, partial curve]. On the same count and under the same terms, as for `CC(=O)Nc1ccc(-c2csc(NCc3ccccc3)n2)cc1`, the figure is 2.51 µM [rising, full curve].

Take `COc1ccc(-c2cc(C#N)nc(Cl)n2)cc1`: the AC50 under setting [2] was 35.5 µM [falling, single point]. Turning to `O=C(Nc1cccc([N+](=O)[O-])c1)Nc1ccc2c(c1)CCC2`, the AC50 under setting [1] is 0.562 µM [rising, full curve]. `CC1CCCCC1NC(=O)CN1C(=O)c2ccccc2S1(=O)=O` (configuration not stated): the AC50 under setting [1] is 20 µM [rising, single point]. As to `COc1ccc(Cl)cc1C(=O)NC(=S)Nc1cc(-c2nc3ccccc3[nH]2)ccc1C`, under setting [1], the AC50 is 7.08 µM [falling, full curve, poor fit]. As to `Fc1cccc(/C=N/n2c(C3CCCCC3)n[nH]c2=S)c1`, the AC50 under setting [1] was 35.5 µM [rising, single point]. Regarding `Cc1cccc(C(=O)NN2C(=O)C3C(c4ccccc4)C=CC(c4ccccc4)C3C2=O)c1` (configuration not stated), under setting [1], the AC50 is 35.5 µM [falling, single point]. The same measure, in the same setting: as for `CCn1c(=O)c2c(nc3n2CCCN3CCc2ccc(OC)c(OC)c2)n(C)c1=O`, the figure is 12.6 µM [falling, partial curve]; as for `CCOC(=O)c1ccccc1NC(=O)CSc1nc2[nH]ncc2c(=O)[nH]1`, 25.9 µM [falling, single point]; as for `Cc1ccc(Nc2nc(-c3cccnc3)cs2)cc1Cl`, 5.62 µM [rising, partial curve, poor fit]. As for `O=S(=O)(c1ccc(Cl)cc1)c1cnc2ccccc2n1`, the AC50 under setting [1] is 10 µM [falling, partial curve, poor fit].
